A short description of the test: qHTS Assay for Lipid Storage Modulators in Drosophila S3 Cells.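 For cell number change: cells counted by Cell Tracker Red CMTPX staining in the red channel.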 The note with it: BODIPY lipid droplet fluorescence, 18-24 h; for cell number change: measured here: cell count max response, cells fed with added oleic acid. Summed up: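 Laser-scanning cytometry quantifies lipid droplet accumulation (500–530 nm total intensity; droplet/cell object ratio) in oleic acid-fed (400 uM added) Drosophila S3 cells treated with a concentration series. 20 uM Triacsin C defined 100% inhibition.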
For orientation: Quantitative high-throughput screening tests each substance at several concentrations.

Setting [1] is: measured here: lipid fluorescence (Fed channel) AC50, cells fed with added oleic acid.
[2] abbreviates: measured here: cell number channel AC50, cells fed with added oleic acid.

The list shows a part of the results. The main result of the screen is listed elsewhere. These columns were measured beside it and carry no call. Most of these compounds were active or inconclusive in the main read-out, so they are no random draw. The note in brackets gives the kind of curve behind each potency; many fits are weak.

The source of these data is PubChem BioAssay AID2685 (National Center for Advancing Translational Sciences (NCATS), 2010).

`C=CCNC(=S)NCC`: the cell number change is -0.696%. For `O=C(CN1CCN(C(=O)CNC(=O)c2ccc3c(c2)OCO3)CC1)Nc1cccc(F)c1`, the cell number change was found to be 27.6%. Moreover, the AC50 under setting [1] was 11.6 µM [rising, partial curve].

On to `CCn1c(=N)n(CC(=O)c2ccc(OC)cc2)c2ccccc21`, for which the cell number change came to 1.25%. In addition, the half-maximal activity concentration (AC50) under setting [2] was 0.206 µM [falling, full curve, poor fit]. For the same compound, the AC50 under setting [1] is 0.206 µM [falling, full curve, poor fit]. For the compound `CCOC(=O)c1ccccc1NC(=O)CSC(C)C(=O)Nc1cc(C)on1` (configuration not stated), the cell number change is -5.93%. Moreover, the AC50 under setting [1] is 18.4 µM [falling, single point]. For `Cc1nnc(SCc2nnc(-c3cccs3)o2)n1C1CCCCC1`, under setting [2], the half-maximal activity concentration (AC50) was 2.59 µM [rising, single point]. `NC(=O)c1c(NC(=O)c2ccccc2F)sc2c1CCCC2`: under setting [1], the AC50 is 5.17 µM [falling, full curve]. Take `COc1cc(/C=C(\C#N)C(=O)Nc2ccccc2)ccc1OCCN1CCOCC1`: the cell number change was -24.8%. For the same compound, the half-maximal activity concentration (AC50) under setting [1] was 29.1 µM [falling, single point]. Consider `O=c1[nH]c(C(F)(F)F)nc2c1nnn2Cc1ccccc1F`, for which the cell number change worked out at 13.9%. Turning to `O=C(CN(C(=O)c1csnn1)c1ccc(F)c(Cl)c1)NCc1ccc2c(c1)OCO2`, the cell number change is 12.8%. Also, the half-maximal activity concentration (AC50) under setting [1] was 0.0259 µM [rising, full curve]. Take `O=C(Nc1ccc(S(=O)(=O)Nc2ncccn2)cc1)c1cccnc1`: the cell number change turned out to be 36.2%. For the same compound, the AC50 under setting [2] was 20.6 µM [rising, single point]. Besides, the concentration at half-maximal activity (AC50) under setting [1] was 18.4 µM [rising, single point]. Regarding `O=C1C(C=NCc2cccnc2)=C(O)c2ccccc21`, the cell number change is -9.93%. On to `COc1ccc(/C=C\C(=O)c2c(O)ccc3c(C)cc(=O)oc23)cc1OC`, for which the cell number change was -47.4%. Besides, the AC50 under setting [2] is 13 µM [falling, single point]. The AC50 under setting [1] is 13 µM [falling, partial curve]. In the case of `CCCOc1c(Br)cc(/C=N/O)cc1OC`, the cell number change was -54.4%. Besides, the AC50 under setting [2] was 16.4 µM [falling, single point]. Moreover, the AC50 under setting [1] is 29.1 µM [falling, single point]. As for `O=C(O)CCCNS(=O)(=O)c1cccc2nsnc12`, the cell number change is -0.0849%. Under setting [1], the half-maximal activity concentration (AC50) is 29.1 µM [falling, partial curve].

In the case of `Cc1cccc(/C=C2/SC(=O)N(Cc3ccccc3Cl)C2=O)n1`, the cell number change came to 0.149%.

As to `CCc1ccc(C(=O)NNc2ccc(S(N)(=O)=O)cc2)cc1`, the cell number change is -16.3%. Under setting [1], the concentration at half-maximal activity (AC50) is 2.06 µM [falling, full curve, poor fit]. Regarding `COc1cc(C(=O)Nc2ccc(-n3cnnn3)c(C)c2)cc(OC)c1OC`, the cell number change was -2.97%. Further, the half-maximal activity concentration (AC50) under setting [1] is 13 µM [falling, partial curve, poor fit]. With `CN1CCN(c2ccc(NC(=O)c3ccc4c(c3)[nH]c(=O)n4Cc3ccc(F)cc3)cc2)CC1`, under setting [1], the AC50 was 20.6 µM [rising, single point].

`O=C(NC1CCCCC1)c1sc(=S)n2c1[nH]c(=O)c1ccccc12`: the cell number change is -53.3%. The half-maximal activity concentration (AC50) under setting [2] is 23.1 µM [falling, single point]. Moreover, the AC50 under setting [1] was 23.1 µM [falling, single point]. With `Cc1ccccc1CCN(CC(=O)NC1CCCCC1)C(=O)c1csnn1`, the cell number change was found to be 7.6%. In addition, under setting [2], the half-maximal activity concentration (AC50) was 6.51 µM [falling, single point].

For `Cc1c(C(=O)OC(C)C)sc(N)c1C(=O)OC(C)C`, the cell number change is -64.3%. In addition, the AC50 under setting [2] was 18.4 µM [falling, partial curve]. The AC50 under setting [1] was 8.2 µM [falling, single point]. With `Cc1ccc(OCC(=O)N/N=C/c2ccncc2)cc1`, the cell number change was 14.1%. Further, the AC50 under setting [1] is 3.26 µM [rising, single point]. For the compound `COc1ccc(N(CC(=O)NC2CCCC2)C(=O)c2ccc(C)s2)c(OC)c1`, the cell number change is 18.9%. The AC50 under setting [1] was 0.231 µM [falling, full curve, poor fit]. Take `CN(C)c1ccc(C(CNC(=O)c2cccs2)N(C)C)cc1` (configuration not stated): the cell number change is 0.345%. Further, the AC50 under setting [1] is 0.651 µM [falling, single point]. As for `Cc1c(CCC(=O)NCCCn2ccnc2)c(=O)oc2c(C)c3occ(C(C)(C)C)c3cc12`, the cell number change turned out to be 18.7%.

As to `CCOCCn1[nH]c2ccccc2c1=O`, the cell number change is -4.15%. For the same compound, under setting [1], the AC50 is 0.146 µM [falling, full curve, poor fit]. In the case of `Cc1cc(C)c(C)c(S(=O)(=O)NCC(=O)Nc2ccc(F)cc2)c1C`, the cell number change came out at 8.71%. The same measure, in the same setting: the result for `CCOc1ccc(CCNC(=O)CN(C)S(=O)(=O)c2ccc3c(c2)CCC(=O)N3)cc1OCC` reads 5.94%. In the case of `CCNC(=S)N1CCN(CCN=CC2=C(O)CC(c3ccco3)CC2=O)CC1` (configuration not stated), the cell number change turned out to be 12.7%. The AC50 under setting [1] is 5.8 µM [falling, single point].

For the compound `O=C(Cc1ccccc1)NCCN1CCCC1`, the cell number change is -1.26%. Under setting [1], the half-maximal activity concentration (AC50) was 0.00517 µM [falling, full curve, poor fit].

Regarding `O=C(Nc1nc(-c2ccccc2)cs1)C1CCCN(S(=O)(=O)c2cccc([N+](=O)[O-])c2)C1` (configuration not stated), the half-maximal activity concentration (AC50) by setting is: under setting [2], 0.651 µM [rising, single point]; under setting [1], 0.731 µM [rising, full curve]. As for `C[C@@]12CCC3[C@@](CCC4[C@@]3(C)CCC[C@@]4(C)C(=O)NC3CCCCC3)(CC1=O)C2` (some centres not stated), the cell number change is -23.5%. Moreover, the AC50 under setting [1] was 0.103 µM [falling, single point].

Take `CCOc1ccc(C2=Nc3ccc(Br)cc3C(c3ccc(N4CCOCC4)cc3)=NN2)cc1`: the cell number change was -14.5%. Also, the AC50 under setting [1] was 5.17 µM [falling, full curve, poor fit]. In the case of `CN1C(=O)/C(=C/c2cccc([N+](=O)[O-])c2)C(=O)N1c1ccccc1`, the cell number change was 7.04%. As to `Cc1cc(Nc2ccc(C)c(C)c2)n2nc(C)nc2n1`, the concentration at half-maximal activity (AC50) by setting is: under setting [2], 1.64 µM [rising, partial curve]; under setting [1], 2.06 µM [rising, partial curve]. In the case of `N/C(=N\OC(=O)c1ccc(=O)n(Cc2ccccc2)c1)c1ccccn1`, the cell number change was -33.8%. In addition, under setting [1], the half-maximal activity concentration (AC50) was 18.4 µM [falling, partial curve, poor fit].

With `COc1ccc(/C=N/c2oc(-c3ccccc3)cc2C#N)cc1OC`, under setting [2], the concentration at half-maximal activity (AC50) is 6.51 µM [rising, single point]. For `CC1(C(=O)OCC(=O)NNC(=O)COc2ccc(Cl)cc2)CC1(Cl)Cl` (configuration not stated), the cell number change is -1.3%. In addition, the AC50 under setting [1] is 1.64 µM [rising, full curve]. Turning to `Cc1ccc2[nH]c(O)c(N=NC(=O)C(C)n3cnc4ccccc4c3=O)c2c1` (configuration not stated), the cell number change was found to be 66.9%. Further, the AC50 under setting [2] was 29.1 µM [rising, single point].

A word on the AC50: it is the midpoint of the concentration-response curve, whichever way the signal moves. A low value points to activity at low concentration.
